Tested on: host cell gene expression in 02SF NPCs
Assay: RNA sequencing and Ingenuity Pathway Analysis of uninfected NPCs
Format: cell-based, human
Conditions: uninfected 02SF NPCs, 10 μM, 72 h, of 12,433 expressed genes; for number of host cell genes significantly altered in expression: FDR corrected p ≤ 0.05

Structure (SMILES)	fraction of host cell genes significantly altered in expression	number of host cell genes significantly altered in expression
O=C1N[C@H]2[C@H](O)[C@H](O)[C@@H](O)C[C@@H]2c2cc3c(cc21)OCO3 [Compound 2b, trans-dihydrolycoricidine, reference compound]	62.5%	7766
O=C1N[C@H]2[C@H](O)[C@H](O)[C@@H](O)C[C@@H]2c2cc(O)ccc21 [Compound 6, (2S,3R,4S,4aR,10bR)-2,3,4,9-Tetrahydroxy-1,3,4,4a,5,10b-hexahydrophenanthridin-6(2H)-one]	2.1%	256
COc1cccc2c1C(=O)N[C@H]1[C@H](O)[C@H](O)[C@@H](O)C[C@H]21 [Compound 7, (2S,3R,4S,4aR,10bR)-2,3,4-Trihydroxy-7-methoxy-1,3,4,4a,5,10b-hexahydrophenanthridin-6(2H)-one]	0.3%	33
O=C1N[C@H]2[C@H](O)[C@H](O)[C@@H](O)C[C@@H]2c2cccc(O)c21 [Compound 8, (2S,3R,4S,4aR,10bR)-2,3,4,7-Tetrahydroxy-1,3,4,4a,5,10b-hexahydrophenanthridin-6(2H)-one]	59.8%	7433

Source: PMC9885069 (Scientific Reports, 2023)
